# Test results published in US12391903B2, “Cleaning liquid for excessive powder removal, method for producing three-dimensional molded object, and set of object molding liquid and cleaning liquid” (Ricoh Company, Ltd., priority 2022, dated 2025).
# Assay: Three-point bending strength of unsintered body before and after immersion in cleaning liquid
# Conditions: for Strength after being immersed, grade / Strength after being immersed (MPa): 30 min in cleaning liquid, ultrasonic bath
# [1] = unsintered body from object molding liquid 1
# [2] = unsintered body from object molding liquid 2
# [3] = unsintered body from object molding liquid 3
smiles,measurement,setting,value
"C=C(C)[C@H]1CC=C(C)CC1 [Comparative Example 1, D-limonene, reference compound]","Strength after being immersed, grade",object molding liquid 1,D (−) (The bending strength was less than 2.7 MPa.)
same,Strength before being immersed (MPa),[1],5.2 MPa
same,"Strength before being immersed, grade",[1],A (The bending strength was 5 MPa or more.)
"CC1=CCC(=C(C)C)CC1 [Comparative Example 2, Terpinolene, reference compound]","Strength after being immersed, grade",object molding liquid 1,D (−) (The bending strength was less than 2.7 MPa.)
same,Strength before being immersed (MPa),[1],5.0 MPa
same,"Strength before being immersed, grade",[1],A (The bending strength was 5 MPa or more.)
"CC1=CCC2CC1C2(C)C (stereo not drawn) [Comparative Example 3, α-pinene, reference compound]","Strength after being immersed, grade",object molding liquid 1,D (−) (The bending strength was less than 2.7 MPa.)
same,Strength before being immersed (MPa),[1],5.0 MPa
same,"Strength before being immersed, grade",[1],A (The bending strength was 5 MPa or more.)
"C=C1CCC2CC1C2(C)C (stereo not drawn) [Comparative Example 4, β-pinene, reference compound]","Strength after being immersed, grade",object molding liquid 2,D (−) (The bending strength was less than 2.7 MPa.)
same,Strength before being immersed (MPa),[2],4.5 MPa
same,"Strength before being immersed, grade",[2],B (The bending strength was 3 MPa or more and less than 5 MPa.)
"CCCCCC [Comparative Example 5, Hexane, reference compound]","Strength after being immersed, grade",object molding liquid 2,D (−) (The bending strength was less than 2.7 MPa.)
same,Strength before being immersed (MPa),[2],4.5 MPa
same,"Strength before being immersed, grade",[2],B (The bending strength was 3 MPa or more and less than 5 MPa.)
"CC1COC(=O)O1 (centres unmarked) [Comparative Example 6, Propylene carbonate, reference compound]","Strength after being immersed, grade",object molding liquid 3,D (−) (The bending strength was less than 2.7 MPa.)
same,Strength before being immersed (MPa),[3],5.6 MPa
same,"Strength before being immersed, grade",[3],A (The bending strength was 5 MPa or more.)
"CCCCCCCCCC [Example 1, Decane]",Strength after being immersed (MPa),object molding liquid 1,5.4 MPa
same,"Strength after being immersed, grade",object molding liquid 1,A (The bending strength was 5 MPa or more.)
same,Strength before being immersed (MPa),[1],5.3 MPa
same,"Strength before being immersed, grade",[1],A (The bending strength was 5 MPa or more.)
"CCCCCCCCCCCC [Example 2, Dodecane]",Strength after being immersed (MPa),object molding liquid 1,5.2 MPa
same,"Strength after being immersed, grade",object molding liquid 1,A (The bending strength was 5 MPa or more.)
same,Strength before being immersed (MPa),[1],5.2 MPa
same,"Strength before being immersed, grade",[1],A (The bending strength was 5 MPa or more.)
"CCCCCCCCCCCCCC [Example 3, Tetradecane]",Strength after being immersed (MPa),object molding liquid 1,5.2 MPa
same,"Strength after being immersed, grade",object molding liquid 1,A (The bending strength was 5 MPa or more.)
same,Strength before being immersed (MPa),[1],5.1 MPa
same,"Strength before being immersed, grade",[1],A (The bending strength was 5 MPa or more.)
"CCCCCCCCCC [Example 5, Decane]",Strength after being immersed (MPa),object molding liquid 2,4.3 MPa
same,"Strength after being immersed, grade",object molding liquid 2,B (The bending strength was 3 MPa or more and less than 5 MPa.)
same,Strength before being immersed (MPa),[2],4.3 MPa
same,"Strength before being immersed, grade",[2],B (The bending strength was 3 MPa or more and less than 5 MPa.)
"CCCCCCCCCC [Example 7, Decane]",Strength after being immersed (MPa),object molding liquid 3,4.9 MPa
same,"Strength after being immersed, grade",object molding liquid 3,A (The bending strength was 5 MPa or more.)
same,Strength before being immersed (MPa),[3],5.1 MPa
same,"Strength before being immersed, grade",[3],A (The bending strength was 5 MPa or more.)

# Some compounds share one wording; it may come from a single statement.
